The full ranking holds about 33,000 sequences; the median of “E-score (-0.5 to 0.5)” is about -0.0034, and the highest 2% start at about 0.25. The list shows a part of the results.

This test deals with T1, Yap3 (UniProt P38749).
T1 sequence: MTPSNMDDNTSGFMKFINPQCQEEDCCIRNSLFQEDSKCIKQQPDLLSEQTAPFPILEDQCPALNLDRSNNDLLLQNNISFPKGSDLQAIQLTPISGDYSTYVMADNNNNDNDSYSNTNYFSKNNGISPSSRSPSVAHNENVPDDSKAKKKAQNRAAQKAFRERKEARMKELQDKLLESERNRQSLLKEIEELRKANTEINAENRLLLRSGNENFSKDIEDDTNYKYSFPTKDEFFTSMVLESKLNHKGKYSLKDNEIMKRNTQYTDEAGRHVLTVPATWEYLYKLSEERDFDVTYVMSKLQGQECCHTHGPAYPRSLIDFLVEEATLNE
Put plainly: PBM E-score (8-mer binding enrichment) (E-score (-0.5 to 0.5)); higher = stronger / more preferred TF binding. The conditions noted are these: protein concentration: 100 nM; construct: GST-full length. The procedure, abridged:
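Detection of bound protein used fluorescent anti-GST, with scans normalised by masliner. The proteins were GST-tagged yeast transcription factors applied at about 100-200 nM to universal all-10-mer Agilent arrays made double-stranded by primer extension. Each ungapped eight-base word, pooled with its reverse complement, was scored with an E-score from the Universal PBM Analysis Suite.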
For AGGCTGAG, the “PBM E-score” value was -0.0282.

Turning to ACAACTGC, the “PBM E-score” value came to 0.0481.

Turning to AAATACAT, the “PBM E-score” value amounted to 0.154.

As to ATGATCTG, the “PBM E-score” value stood at 0.0526.

Take AGGGACCT: the “PBM E-score” value is -0.11.

On to GAGCTAAA, for which the “PBM E-score” value was -0.189.

As to TCCTGCCA, the “PBM E-score” value is -0.136.

For the sequence AAATTGAT, the “PBM E-score” value is 0.165.

Consider ATTTGTGA, for which the “PBM E-score” value came out at 0.0681.

Regarding CCTGATCG, the “PBM E-score” value was -0.11.

Regarding ACGGGTCA, the “PBM E-score” value was -0.293.

As to ATGGAAAA, the “PBM E-score” value stood at 0.213.

Regarding ACCTCCAA, the “PBM E-score” value is -0.153.

With AATAACAC, the “PBM E-score” value came to 0.288.

For GACCAAGC, the “PBM E-score” value is -0.00162.

With CCACCAAG, the “PBM E-score” value is -0.128.

AAACCCAG: the “PBM E-score” value was 0.0487.

ACATCAAC: the “PBM E-score” value turned out to be 0.196.

Take GAAAAGGA: the “PBM E-score” value is 0.0543.

For the sequence ATAGCCAG, the “PBM E-score” value is -0.00681.

Take GGACAAAC: the “PBM E-score” value was -0.0146.

Consider ATCAATGC, for which the “PBM E-score” value stood at 0.0129.

As for AACATCCA, the “PBM E-score” value was determined as 0.0691.

As for TATGACAA, the “PBM E-score” value is 0.123.

For CAATCAGG, the “PBM E-score” value was 0.0129.

Take GCCGGCCC: the “PBM E-score” value is -0.24.

For GACTGTCC, the “PBM E-score” value is -0.203.

For CAAGCTTA, the “PBM E-score” value was 0.0342.

Consider GGGAAAAC, for which the “PBM E-score” value was determined as 0.0844.

On to GGGACAAC, for which the “PBM E-score” value was -0.0271.

CGTTAATA: the “PBM E-score” value came to 0.197.

Consider ATTAAGTA, for which the “PBM E-score” value stood at 0.237.

Take CGGTTAGC: the “PBM E-score” value is -0.185.

Take ATTGCAAA: the “PBM E-score” value turned out to be 0.0883.

In the case of ACCATTCG, the “PBM E-score” value was -0.0762.

Take CGTAAGTC: the “PBM E-score” value is 0.153.

GAGTATAC: the “PBM E-score” value turned out to be 0.0677.

As to GTGCCCAA, the “PBM E-score” value is -0.0496.

As for ACGGTCTG, the “PBM E-score” value was -0.171.

Consider CAATACGA, for which the “PBM E-score” value came to 0.138.

For AATCTGAG, the “PBM E-score” value was -0.0276.

Turning to CTTTAAAA, the “PBM E-score” value was 0.208.

As for GACTAAGC, the “PBM E-score” value is 0.0559.

On to GCCTTGCC, for which the “PBM E-score” value is -0.125.

Turning to CAGCTACA, the “PBM E-score” value is -0.0169.

As for ATCCTACG, the “PBM E-score” value turned out to be 0.0452.

CGTGCCGA: the “PBM E-score” value is -0.0115.

On to AGGGCGTA, for which the “PBM E-score” value is -0.0844.

In the case of GCACCGGC, the “PBM E-score” value was -0.209.

Consider TACAAGTA, for which the “PBM E-score” value was 0.177.

With AAACATAA, the “PBM E-score” value was determined as 0.202.

With CCGGTCGA, the “PBM E-score” value was -0.307.

Turning to TAAACATA, the “PBM E-score” value was 0.19.

Consider CCCACTTC, for which the “PBM E-score” value worked out at 0.00309.

As to ATATCCAG, the “PBM E-score” value was found to be 0.0361.

Consider ATCTACAT, for which the “PBM E-score” value came out at 0.151.

With GGGTACGA, the “PBM E-score” value is -0.00652.

Consider ATAATCCA, for which the “PBM E-score” value is 0.212.

Turning to ATAGGGAG, the “PBM E-score” value was -0.119.

As to ACTAGTCT, the “PBM E-score” value is -0.143.

AATGGAGA: the “PBM E-score” value is 0.0536.

For the sequence AGGCAAAG, the “PBM E-score” value came to 0.0426.

ATTTGTTG: the “PBM E-score” value was determined as 0.147.

As to GACCCTGC, the “PBM E-score” value is -0.234.

For the sequence AGGGATAA, the “PBM E-score” value was 0.069.

Turning to GCCGCCGA, the “PBM E-score” value was found to be 0.187.

On to ATTCACGA, for which the “PBM E-score” value came out at 0.149.

Consider CGGTAGGA, for which the “PBM E-score” value was -0.174.

Regarding ACGACGAG, the “PBM E-score” value was -0.0147.

AAGCTATT: the “PBM E-score” value is -0.0651.

For CTGTTATA, the “PBM E-score” value was 0.0877.

In the case of AAACGGAG, the “PBM E-score” value turned out to be 0.0915.

Consider CAACTTAG, for which the “PBM E-score” value is 0.228.

Consider GATTGTAA, for which the “PBM E-score” value was 0.125.

For the sequence ACAAGTTG, the “PBM E-score” value turned out to be 0.0961.

GACGGTCC: the “PBM E-score” value is -0.184.

For the sequence GATGTTCA, the “PBM E-score” value is -0.179.

For CCTGCGTC, the “PBM E-score” value was -0.24.

Turning to CCGGAGCG, the “PBM E-score” value is -0.252.

For AACAAACA, the “PBM E-score” value is 0.214.

With AAATTTAG, the “PBM E-score” value is 0.156.

In the case of GCCAACGA, the “PBM E-score” value is -0.0194.

For CAACGGGC, the “PBM E-score” value was 0.0706.

ATTAGAAC: the “PBM E-score” value was determined as 0.253.

Regarding ACATGAGA, the “PBM E-score” value is 0.0391.

In the case of AAACCCCT, the “PBM E-score” value was -0.258.

As to AGCACGCA, the “PBM E-score” value was -0.219.

Regarding TCTGTTAA, the “PBM E-score” value was found to be 0.145.

For ATGGGCGC, the “PBM E-score” value is -0.252.

On to GGTAAGCA, for which the “PBM E-score” value amounted to 0.113.

ACGGGTTG: the “PBM E-score” value is -0.207.

On to GCACACCC, for which the “PBM E-score” value was -0.192.

CTACGCCA: the “PBM E-score” value is -0.251.

As for CCGAAGTC, the “PBM E-score” value was -0.0214.

On to TGCATCCA, for which the “PBM E-score” value was 0.127.

Consider TCAGGGCA, for which the “PBM E-score” value was -0.136.

Consider ACTACGCT, for which the “PBM E-score” value was found to be 0.00341.

As for CGGAAGAA, the “PBM E-score” value worked out at 0.102.

For the sequence GCCCTTGA, the “PBM E-score” value was -0.123.

Regarding CTACTGCC, the “PBM E-score” value is -0.0886.

With CAACCTCA, the “PBM E-score” value was -0.0535.

For ACGCTAGT, the “PBM E-score” value is -0.0174.

CGGTGGCC: the “PBM E-score” value is -0.208.

On to CGGCAGGA, for which the “PBM E-score” value was -0.337.

Turning to GAGGCTAA, the “PBM E-score” value is 0.0305.

Turning to AAAAACTG, the “PBM E-score” value is 0.0375.

On to CCCGCAAC, for which the “PBM E-score” value is -0.0592.

Take TAGATGAA: the “PBM E-score” value turned out to be 0.082.

For the sequence CAAATTGA, the “PBM E-score” value came out at 0.0304.

On to AAGGTGAG, for which the “PBM E-score” value turned out to be 0.065.

These data come from the supplement of paper PMC3334620.
